Measured values taken from paper PMC8630191.
No constants are given. Whether binding was seen depends on the method and setting. In cells and extracts the contact can be indirect. These calls come from enrichment with a bait or labelling near it, and not all partners need be listed. For some assays here: Sequences can lack the tags named with a protein.

Chains of the proteins cited; added tags and fusions are not shown.
UniProt P62714: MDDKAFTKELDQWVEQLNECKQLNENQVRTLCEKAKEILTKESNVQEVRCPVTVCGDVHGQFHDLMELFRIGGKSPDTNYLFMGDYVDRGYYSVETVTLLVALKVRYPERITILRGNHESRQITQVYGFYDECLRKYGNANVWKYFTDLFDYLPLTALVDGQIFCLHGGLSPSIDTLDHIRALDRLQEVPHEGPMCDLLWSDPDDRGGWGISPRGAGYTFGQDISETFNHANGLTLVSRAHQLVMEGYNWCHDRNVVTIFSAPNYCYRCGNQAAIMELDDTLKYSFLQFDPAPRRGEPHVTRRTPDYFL
UniProt Q15172: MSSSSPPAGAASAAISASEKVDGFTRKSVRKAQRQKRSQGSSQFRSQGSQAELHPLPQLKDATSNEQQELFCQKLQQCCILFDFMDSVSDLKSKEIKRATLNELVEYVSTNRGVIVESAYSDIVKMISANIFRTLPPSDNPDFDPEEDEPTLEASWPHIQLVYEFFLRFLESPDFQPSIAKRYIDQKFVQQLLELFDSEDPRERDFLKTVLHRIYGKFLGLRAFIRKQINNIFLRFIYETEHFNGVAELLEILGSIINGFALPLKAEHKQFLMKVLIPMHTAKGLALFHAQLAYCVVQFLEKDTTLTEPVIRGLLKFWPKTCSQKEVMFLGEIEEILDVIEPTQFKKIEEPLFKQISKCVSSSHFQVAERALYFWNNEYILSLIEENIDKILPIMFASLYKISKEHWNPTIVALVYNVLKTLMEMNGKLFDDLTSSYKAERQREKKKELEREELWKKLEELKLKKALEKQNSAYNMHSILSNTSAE
UniProt Q5MIZ7: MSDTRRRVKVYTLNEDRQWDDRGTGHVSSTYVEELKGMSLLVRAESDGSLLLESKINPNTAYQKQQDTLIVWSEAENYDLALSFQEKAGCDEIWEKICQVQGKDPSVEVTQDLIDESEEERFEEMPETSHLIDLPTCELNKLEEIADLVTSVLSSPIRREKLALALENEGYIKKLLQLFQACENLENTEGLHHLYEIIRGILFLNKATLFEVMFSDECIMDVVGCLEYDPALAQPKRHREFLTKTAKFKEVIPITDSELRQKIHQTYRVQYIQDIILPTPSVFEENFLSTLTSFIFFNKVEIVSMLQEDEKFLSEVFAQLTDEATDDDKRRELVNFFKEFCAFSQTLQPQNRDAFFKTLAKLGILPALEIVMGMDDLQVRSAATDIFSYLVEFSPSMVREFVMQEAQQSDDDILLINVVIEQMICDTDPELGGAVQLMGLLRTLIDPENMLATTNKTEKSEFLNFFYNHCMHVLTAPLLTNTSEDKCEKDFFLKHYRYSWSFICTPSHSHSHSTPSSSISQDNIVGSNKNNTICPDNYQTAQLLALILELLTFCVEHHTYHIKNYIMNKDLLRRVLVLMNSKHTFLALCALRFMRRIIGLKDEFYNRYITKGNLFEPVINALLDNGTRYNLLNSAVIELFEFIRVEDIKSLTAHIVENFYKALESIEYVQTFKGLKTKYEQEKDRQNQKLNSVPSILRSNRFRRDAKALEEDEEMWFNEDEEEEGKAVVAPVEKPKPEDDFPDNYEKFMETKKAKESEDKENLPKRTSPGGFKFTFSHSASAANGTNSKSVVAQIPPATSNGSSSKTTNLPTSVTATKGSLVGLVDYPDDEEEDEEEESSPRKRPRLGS
UniProt P30153: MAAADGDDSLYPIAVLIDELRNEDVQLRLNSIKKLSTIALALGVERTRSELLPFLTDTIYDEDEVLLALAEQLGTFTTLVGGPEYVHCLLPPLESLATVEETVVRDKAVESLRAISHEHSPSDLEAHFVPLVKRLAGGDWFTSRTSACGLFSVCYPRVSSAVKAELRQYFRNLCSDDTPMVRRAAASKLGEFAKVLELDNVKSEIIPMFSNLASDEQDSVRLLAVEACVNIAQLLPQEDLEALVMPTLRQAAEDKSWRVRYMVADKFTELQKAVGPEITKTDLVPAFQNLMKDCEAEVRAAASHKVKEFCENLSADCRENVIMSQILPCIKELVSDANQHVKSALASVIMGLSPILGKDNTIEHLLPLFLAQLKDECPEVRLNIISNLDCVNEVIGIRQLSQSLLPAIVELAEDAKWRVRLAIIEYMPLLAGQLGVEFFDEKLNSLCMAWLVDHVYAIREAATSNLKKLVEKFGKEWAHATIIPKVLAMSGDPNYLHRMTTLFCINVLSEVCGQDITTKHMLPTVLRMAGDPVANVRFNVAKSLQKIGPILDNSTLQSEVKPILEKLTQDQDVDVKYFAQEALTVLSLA
UniProt P30154: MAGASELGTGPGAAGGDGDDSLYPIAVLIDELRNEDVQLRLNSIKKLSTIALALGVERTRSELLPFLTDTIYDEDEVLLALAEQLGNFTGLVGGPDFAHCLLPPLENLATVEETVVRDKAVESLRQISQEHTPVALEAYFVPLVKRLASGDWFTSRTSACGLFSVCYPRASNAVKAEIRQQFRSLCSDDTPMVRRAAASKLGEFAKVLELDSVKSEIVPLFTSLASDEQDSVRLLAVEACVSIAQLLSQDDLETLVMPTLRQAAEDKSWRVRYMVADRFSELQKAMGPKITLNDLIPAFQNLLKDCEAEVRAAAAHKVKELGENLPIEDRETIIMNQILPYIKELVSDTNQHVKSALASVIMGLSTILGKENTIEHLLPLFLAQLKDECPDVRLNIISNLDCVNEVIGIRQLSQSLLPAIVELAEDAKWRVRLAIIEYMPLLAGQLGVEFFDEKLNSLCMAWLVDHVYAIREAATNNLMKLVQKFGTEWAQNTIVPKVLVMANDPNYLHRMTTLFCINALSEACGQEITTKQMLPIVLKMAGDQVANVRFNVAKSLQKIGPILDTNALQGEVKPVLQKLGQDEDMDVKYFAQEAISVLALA

Assays:
Assay in all cases: affinity purification with mass spectrometry; 3xFLAG-tagged catalytic subunit (WT or ΔL) transfected in FreeStyle 293F cells; FLAG M2 affinity gel, 3 h at 4 °C; lysis and wash buffer 50 mM Tris pH 7.5, 500 mM NaCl, 0.5% Triton X-100; eluted with 3XFLAG peptide; label-free quantitative LC-MS/MS on unique peptides, three replicates
[1] = molecular target: 3xFLAG-tagged PP2Acβ, wild type (human) (UniProt P62714)
[2] = molecular target: T1, 3xFLAG-tagged PP4c ΔL mutant (Leu 307 deleted) (human) (UniProt P60510)
T1 sequence: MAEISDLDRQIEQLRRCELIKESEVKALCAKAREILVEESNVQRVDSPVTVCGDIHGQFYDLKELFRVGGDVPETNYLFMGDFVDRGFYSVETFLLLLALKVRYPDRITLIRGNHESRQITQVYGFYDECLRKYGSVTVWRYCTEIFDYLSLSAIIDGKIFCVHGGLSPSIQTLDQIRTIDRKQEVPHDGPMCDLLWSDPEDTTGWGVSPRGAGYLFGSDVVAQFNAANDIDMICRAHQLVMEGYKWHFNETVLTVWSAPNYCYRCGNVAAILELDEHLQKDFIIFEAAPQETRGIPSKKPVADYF

[3] = molecular target: T2, 3xFLAG-tagged PP4c, wild type (human) (UniProt P60510)
T2 sequence: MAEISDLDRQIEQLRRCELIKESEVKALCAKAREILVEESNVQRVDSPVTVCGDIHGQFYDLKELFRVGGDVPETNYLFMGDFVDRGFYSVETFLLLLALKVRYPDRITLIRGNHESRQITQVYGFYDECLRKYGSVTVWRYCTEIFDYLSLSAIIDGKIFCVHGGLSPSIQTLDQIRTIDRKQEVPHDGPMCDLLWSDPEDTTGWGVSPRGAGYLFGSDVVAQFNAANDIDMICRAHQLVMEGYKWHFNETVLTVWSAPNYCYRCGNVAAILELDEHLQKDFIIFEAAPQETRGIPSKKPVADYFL

Substance: B56α, PP2A regulatory subunit (from UniProt Q15172 1-486)
- binding [1]: binds

Substance: PP4R3β, PP4 regulatory subunit (from UniProt Q5MIZ7 1-849)
- binding [2]: binds
- binding [3]: binds

Substance: PR65α, PP2A scaffolding (A) subunit (from UniProt P30153 1-589)
- binding [1]: binds

Substance: PR65β, PP2A scaffolding (A) subunit (from UniProt P30154 1-601)
- binding [1]: binds
